Data: the supplement of paper PMC6411743
± gives the standard deviation of the averaged measurements. Only a part is listed here, and it is no random draw.

Tests used:
Assay in all cases: NP40-soluble protein abundance relative to vehicle (solubility fold change) (ratio); higher = more soluble protein in presence of AMP-PNP
UniProt Q6UX04 = biological target: T1, UniProt Q6UX04
T1 sequence (whole entry): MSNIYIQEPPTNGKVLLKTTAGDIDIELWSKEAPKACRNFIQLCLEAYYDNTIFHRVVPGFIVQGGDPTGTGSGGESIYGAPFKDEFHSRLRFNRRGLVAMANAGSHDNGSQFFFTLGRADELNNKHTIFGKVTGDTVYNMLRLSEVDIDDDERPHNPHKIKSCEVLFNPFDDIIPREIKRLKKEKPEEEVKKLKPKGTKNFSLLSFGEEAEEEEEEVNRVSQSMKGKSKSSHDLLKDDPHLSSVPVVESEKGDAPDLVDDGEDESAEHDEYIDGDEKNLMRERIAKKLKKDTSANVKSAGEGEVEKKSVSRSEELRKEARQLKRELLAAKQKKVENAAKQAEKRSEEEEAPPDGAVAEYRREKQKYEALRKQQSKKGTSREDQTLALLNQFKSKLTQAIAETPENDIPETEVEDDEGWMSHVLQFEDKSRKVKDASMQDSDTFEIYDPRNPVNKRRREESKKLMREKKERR
How it was run: (§1)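 Data come from three independent experiments in which Dounce-homogenised Jurkat crude lysate was treated at eight concentrations from 0.1 to 10 mM. Treatment ran 10 min at room temperature and then 3 min at 37 °C, after which 0.8% NP40 and benzonase were added for 60 min at 4 °C before ultracentrifugation. The supernatant underwent TMT labelling and LC-MS/MS, and vsn-normalised intensities were expressed as fold change against the detergent-processed vehicle in each replicate.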

UniProt Q7L8W6 = biological target: T2, UniProt Q7L8W6
T2 sequence (whole entry): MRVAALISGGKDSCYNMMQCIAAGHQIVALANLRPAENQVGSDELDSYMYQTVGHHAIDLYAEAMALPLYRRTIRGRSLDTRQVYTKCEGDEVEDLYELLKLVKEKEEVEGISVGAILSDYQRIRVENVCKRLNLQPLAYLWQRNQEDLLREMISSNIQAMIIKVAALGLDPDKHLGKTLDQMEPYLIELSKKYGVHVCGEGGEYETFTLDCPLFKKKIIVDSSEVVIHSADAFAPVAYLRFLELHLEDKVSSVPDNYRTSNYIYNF
How it was run: as §1

[1] = biological target: T3, UniProt Q7Z3K3 and related entries
T3 sequence (whole entry): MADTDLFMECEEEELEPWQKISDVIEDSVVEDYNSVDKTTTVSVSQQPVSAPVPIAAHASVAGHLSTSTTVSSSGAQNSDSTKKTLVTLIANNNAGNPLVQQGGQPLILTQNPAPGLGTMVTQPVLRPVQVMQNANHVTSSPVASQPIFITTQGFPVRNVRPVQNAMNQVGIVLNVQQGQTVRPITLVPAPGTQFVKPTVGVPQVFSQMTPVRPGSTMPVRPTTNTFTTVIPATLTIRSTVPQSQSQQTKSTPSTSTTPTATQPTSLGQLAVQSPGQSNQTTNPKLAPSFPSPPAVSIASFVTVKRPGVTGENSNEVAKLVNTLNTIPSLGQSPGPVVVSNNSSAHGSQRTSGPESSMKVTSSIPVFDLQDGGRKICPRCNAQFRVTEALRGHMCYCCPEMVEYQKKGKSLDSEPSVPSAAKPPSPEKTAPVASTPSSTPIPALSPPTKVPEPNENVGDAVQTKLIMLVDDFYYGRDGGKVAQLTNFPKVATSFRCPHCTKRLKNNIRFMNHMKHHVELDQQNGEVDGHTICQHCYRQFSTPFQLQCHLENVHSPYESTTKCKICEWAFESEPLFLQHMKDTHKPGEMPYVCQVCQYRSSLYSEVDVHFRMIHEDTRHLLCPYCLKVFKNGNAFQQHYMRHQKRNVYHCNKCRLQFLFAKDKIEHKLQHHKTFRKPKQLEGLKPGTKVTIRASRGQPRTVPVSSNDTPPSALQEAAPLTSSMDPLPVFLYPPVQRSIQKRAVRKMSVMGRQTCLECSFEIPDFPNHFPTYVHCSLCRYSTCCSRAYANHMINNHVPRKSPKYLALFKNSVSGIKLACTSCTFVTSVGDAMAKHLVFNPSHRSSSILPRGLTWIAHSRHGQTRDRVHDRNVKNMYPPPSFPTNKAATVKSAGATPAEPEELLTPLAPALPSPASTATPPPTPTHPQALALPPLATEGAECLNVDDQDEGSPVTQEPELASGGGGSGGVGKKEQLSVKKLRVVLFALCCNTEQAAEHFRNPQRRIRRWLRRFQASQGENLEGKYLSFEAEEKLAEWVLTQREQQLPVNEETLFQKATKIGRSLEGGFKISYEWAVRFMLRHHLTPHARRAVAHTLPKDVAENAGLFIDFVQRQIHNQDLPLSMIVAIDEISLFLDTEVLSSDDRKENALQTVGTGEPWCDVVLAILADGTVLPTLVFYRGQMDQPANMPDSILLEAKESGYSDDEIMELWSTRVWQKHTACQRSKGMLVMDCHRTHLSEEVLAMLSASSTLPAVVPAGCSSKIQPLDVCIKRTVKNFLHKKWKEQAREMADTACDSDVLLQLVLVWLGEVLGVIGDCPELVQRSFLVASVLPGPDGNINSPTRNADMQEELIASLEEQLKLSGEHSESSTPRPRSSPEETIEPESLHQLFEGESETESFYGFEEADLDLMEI
How it was run: as §1

[2] = biological target: T4, UniProt Q7Z412 and related entries
T4 sequence (whole entry): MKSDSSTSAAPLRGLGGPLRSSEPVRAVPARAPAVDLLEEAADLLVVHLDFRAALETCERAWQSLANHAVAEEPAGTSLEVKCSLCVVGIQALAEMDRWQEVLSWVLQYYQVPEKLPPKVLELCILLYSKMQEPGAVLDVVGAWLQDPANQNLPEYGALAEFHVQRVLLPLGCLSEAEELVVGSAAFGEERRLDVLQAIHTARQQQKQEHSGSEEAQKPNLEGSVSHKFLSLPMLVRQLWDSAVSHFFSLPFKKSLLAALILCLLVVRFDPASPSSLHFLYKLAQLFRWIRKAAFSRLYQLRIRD
How it was run: as §1

[3] = biological target: T5, UniProt Q7Z4H3 and related entries
T5 sequence (whole entry): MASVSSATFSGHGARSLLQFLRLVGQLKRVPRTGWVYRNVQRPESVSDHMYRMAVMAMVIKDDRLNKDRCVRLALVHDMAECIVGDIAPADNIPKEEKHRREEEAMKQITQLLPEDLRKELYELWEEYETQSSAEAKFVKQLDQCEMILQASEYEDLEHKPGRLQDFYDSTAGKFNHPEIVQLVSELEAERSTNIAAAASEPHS
How it was run: as §1

With `Nc1ncnc2c1ncn2[C@@H]1O[C@H](COP(=O)(O)OP(=O)(O)NP(=O)(O)O)[C@@H](O)[C@H]1O` [adenylyl imidodiphosphate] the NP40-soluble protein abundance (UniProt Q6UX04; concentration: 1mM) was 1.06 ± 0.028, the NP40-soluble protein abundance (UniProt Q6UX04; concentration: 2mM) was 1.09 ± 0.057 and the NP40-soluble protein abundance (UniProt Q6UX04; concentration: 4mM) was 1.02 ± 0.014. It also gave an NP40-soluble protein abundance (UniProt Q6UX04; concentration: 6mM) of 1.05 ± 0.051, an NP40-soluble protein abundance (UniProt Q6UX04; concentration: 8mM) of 1.02 ± 0.036 and an NP40-soluble protein abundance (UniProt Q6UX04; concentration: 10mM) of 1.03 ± 0.028. It also gave an NP40-soluble protein abundance (UniProt Q7L8W6; concentration: 1mM) of 0.964 ± 0.013, an NP40-soluble protein abundance (UniProt Q7L8W6; concentration: 2mM) of 0.944 ± 0.059 and an NP40-soluble protein abundance (UniProt Q7L8W6; concentration: 4mM) of 0.967 ± 0.037. It also gave an NP40-soluble protein abundance (UniProt Q7L8W6; concentration: 6mM) of 0.988 ± 0.018, an NP40-soluble protein abundance (UniProt Q7L8W6; concentration: 8mM) of 0.995 ± 0.017 and an NP40-soluble protein abundance (UniProt Q7L8W6; concentration: 10mM) of 0.9622 ± 0.0073. The NP40-soluble protein abundance ([1]; concentration: 1mM) was 1.06 ± 0.011, the NP40-soluble protein abundance ([1]; concentration: 2mM) was 1.1 ± 0.02 and the NP40-soluble protein abundance ([1]; concentration: 4mM) was 1.177 ± 0.0098. The NP40-soluble protein abundance ([1]; concentration: 6mM) was 1.23 ± 0.034, the NP40-soluble protein abundance ([1]; concentration: 8mM) was 1.26 ± 0.037 and the NP40-soluble protein abundance ([1]; concentration: 10mM) was 1.32 ± 0.063. For the same molecule, the NP40-soluble protein abundance ([2]; concentration: 1mM) was 1.05 ± 0.022, the NP40-soluble protein abundance ([2]; concentration: 2mM) was 1.09 ± 0.025 and the NP40-soluble protein abundance ([2]; concentration: 4mM) was 1.06 ± 0.053. The NP40-soluble protein abundance ([2]; concentration: 6mM) was 1.05 ± 0.055, the NP40-soluble protein abundance ([2]; concentration: 8mM) was 1.03 ± 0.038 and the NP40-soluble protein abundance ([2]; concentration: 10mM) was 1.06 ± 0.039. The NP40-soluble protein abundance ([3]; concentration: 1mM) was 0.96 ± 0.09, the NP40-soluble protein abundance ([3]; concentration: 2mM) was 1.05 ± 0.017 and the NP40-soluble protein abundance ([3]; concentration: 4mM) was 0.951 ± 0.12. For the same molecule, the NP40-soluble protein abundance ([3]; concentration: 6mM) was 0.89 ± 0.039, the NP40-soluble protein abundance ([3]; concentration: 8mM) was 0.878 ± 0.044 and the NP40-soluble protein abundance ([3]; concentration: 10mM) was 0.824 ± 0.081.
